PubChem BioAssay AID1671195 – Yale University, 2021
Purpose: 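Regulators of LDL receptor activity judged by labelled LDL uptake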 (primary screen). Cells: human Huh7 hepatoma cells. Reagents: siRNA pool against human genes, 18 nM. Timing: about 2 to 2.5 days of knockdown, then 8 h LDL uptake. Treatment: DiI-labelled LDL at 30 µg/ml for 8 h, in lipoprotein-deficient serum medium. Detection: 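Per-cell DiI-LDL intensity by automated imaging; well means scaled to the plate median and given as a robust z-score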. Reading the numbers: robust z-score: higher = more LDL uptake after knockdown. Active means: 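a gene counts as active if at least two replicate z-scores exceed ±2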.
Shown is one part, drawn at random, of about 22,000 reagents. About 1,510 of them (6.9%) count as active. 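Active includes knockdowns raising or lowering LDL uptake; positive z-scores mean more uptake, negative mean less.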 A number with no mark means an inactive call. No sequences are given here.

gene knocked down	robust z-score, replicate 1	robust z-score, replicate 2	robust z-score, replicate 3
F10	-0.179	-0.3	-0.273
TRIM2	-0.327	-0.975	0.0217
CSNK1G3	-0.584	-1.4	-0.596
WDR6	-1.28	-2.27	-1.09
NCSTN	-0.0635	1.27	-0.362
HERC6	0.169	1.91	0.413
ABHD16A	-1.09	-2.29	-0.806
SEPTIN4	-0.0717	-1.21	-0.912
TAB2	-1.23	-1.08	-0.448
TJP3P1	-0.615	-0.872	-1.57
C1R	-0.731	-1.59	-0.66
LCN15	-1.44	-1.04	-1.32
LOC389372 (retired record)	-0.156	0.202	-0.264
HEYL	-1.81	1.19	-1.21
WDFY3-AS2	0.989	1.19	0.0636
KRTAP13-3	-0.592	-0.927	-0.903
USP10	-0.221	-0.503	0.0758
HOMEZ	0.883	1.8	2.54
INSRR	-0.313	0.384	-0.234
INTS14	-0.0812	0.903	1.52
IL22RA2	-0.789	1.62	-0.482
LENEP	1.28	0.0362	1.57
ROR2	0.832	0.778	0.565
RUNX3	-0.116	-1.06	-1.05
PHACTR2-AS1	-0.321	-0.0331	-0.103
NUDT10	0.35	0.372	0.981
HISLA	-0.853	-0.904	-0.691
LOC727862	-1.07	-1.15	-1.14
TFEC	0.798	0.841	0.511
BHLHE40	-0.368	-0.197	-0.332
METTL2B	-0.156	-0.203	-0.143
ECHDC3	-0.0428	-0.653	0.178
MANF	-0.971	-0.797	-2.04
RANBP1	-0.97	-1.91	-0.769
LOC145660 (retired record)	-0.437	-0.385	-0.636
MAGI1	-0.622	1.25	1.22
MMP8	2.29	0.564	1.11
PRR14	-0.644	-0.107	0.314
RHOBTB2	-2.18	-0.764	-1.3
GRB14	-1.19	-0.241	-1.08
LOC388481 (retired record)	1.01	1.23	0.624
HIGD1A	0.506	0.48	-0.658
ANKRD30A	0.907	0.274	0.461
LOC389173 (retired record)	-0.841	-1.14	-0.415
DSTN	0.265	-0.858	0.773
DDX60	-1.86	-0.67	-1.71
MYOM3	0.582	-0.815	-0.657
SLC35G1	1.49	1.1	1.34
GPRIN3	2.09	1.76	1.27
LOC387709 (retired record)	0.0896	0.0254	0.807
LOC388508 (retired record)	-1.1	-1.42	-1.4
OGFOD1	-0.422	0.947	-0.979
MDM2	0.969	0.758	1.63
H1-6	-0.91	-1.18	-0.79
IL12B	-1.25	-0.357	-0.891
ENAM	-1.43	0.269	0.0193
OR6S1	-0.478	-0.531	-0.504
HLA-DOB	-1.69	-0.836	-1.37
BAALC	2.4	1.81	1.45
CFAP144P1	-0.539	-0.44	-0.289
KIF7	-0.89	-0.245	-0.437
CD226	-0.681	-1.15	-0.169
TIMMDC1	0.216	0.411	0.444
LIX1	-1.34	-1.46	-1.78
NEURL1	2.61 (active)	1.98	3.92
PDE8A	-1.3	-1.04	-1.17
EXO1	-0.0843	0.224	0.323
POTEKP	-1.9	0.459	0.421

A portion taken from the entries so far:
gene knocked down	robust z-score, replicate 1	robust z-score, replicate 2	robust z-score, replicate 3
OGFOD1	-0.422	0.947	-0.979
MDM2	0.969	0.758	1.63
H1-6	-0.91	-1.18	-0.79
IL12B	-1.25	-0.357	-0.891
ENAM	-1.43	0.269	0.0193
OR6S1	-0.478	-0.531	-0.504
HLA-DOB	-1.69	-0.836	-1.37
BAALC	2.4	1.81	1.45
